According to the M2OR odorant receptor database:
Only a part is listed here, and it is no random draw. Calls are pooled over several reports, among them a noisy single-well screen. The list shows a part of the results. Some of the results follow.

Experiments:
Conditions in all cases: stereoisomer not certain
OR2W1 = tested on: T1, OR2W1
T1 sequence (whole entry): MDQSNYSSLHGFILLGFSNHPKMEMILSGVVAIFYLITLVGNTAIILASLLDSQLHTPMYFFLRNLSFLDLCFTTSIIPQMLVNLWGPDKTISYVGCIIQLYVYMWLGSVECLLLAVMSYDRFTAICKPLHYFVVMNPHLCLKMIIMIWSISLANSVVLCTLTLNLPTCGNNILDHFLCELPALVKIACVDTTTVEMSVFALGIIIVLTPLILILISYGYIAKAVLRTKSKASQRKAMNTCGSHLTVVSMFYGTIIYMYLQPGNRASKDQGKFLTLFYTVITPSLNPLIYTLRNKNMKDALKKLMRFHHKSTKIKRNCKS
How it was run: (§1)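 Assay methods differ from source to source, frequently being transient luciferase assays in mammalian cell lines. For each receptor–molecule pair, the label responsive (active) applies when the original authors judged the measured signal statistically different from baseline, and non-responsive (inactive) applies otherwise.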

OR2W3 (Homo sapiens) = target: T2, OR2W3 (Homo sapiens) (UniProt Q7Z3T1)
T2 sequence (whole entry): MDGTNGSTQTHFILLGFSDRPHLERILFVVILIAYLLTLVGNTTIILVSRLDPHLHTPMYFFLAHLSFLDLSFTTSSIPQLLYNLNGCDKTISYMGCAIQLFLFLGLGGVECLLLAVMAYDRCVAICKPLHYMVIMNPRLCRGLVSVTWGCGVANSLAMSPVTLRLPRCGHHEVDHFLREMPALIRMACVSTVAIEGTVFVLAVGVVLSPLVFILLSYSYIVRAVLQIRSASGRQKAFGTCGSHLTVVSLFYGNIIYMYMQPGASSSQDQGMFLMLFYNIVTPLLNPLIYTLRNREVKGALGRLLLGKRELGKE
How it was run: as §1

OR2W3 = tested on: T3, OR2W3
T3 sequence (whole entry): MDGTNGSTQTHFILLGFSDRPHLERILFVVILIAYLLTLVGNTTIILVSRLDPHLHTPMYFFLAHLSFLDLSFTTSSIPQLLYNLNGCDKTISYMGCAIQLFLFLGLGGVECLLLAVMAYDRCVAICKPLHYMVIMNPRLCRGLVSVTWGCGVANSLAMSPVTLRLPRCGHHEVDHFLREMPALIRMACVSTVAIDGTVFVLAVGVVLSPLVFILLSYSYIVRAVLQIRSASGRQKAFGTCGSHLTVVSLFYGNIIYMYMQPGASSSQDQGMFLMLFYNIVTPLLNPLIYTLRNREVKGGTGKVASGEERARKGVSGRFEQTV
How it was run: as §1

OR2W5P (Homo sapiens) = target: T4, OR2W5P (Homo sapiens) (UniProt A6NFC9)
T4 sequence (whole entry): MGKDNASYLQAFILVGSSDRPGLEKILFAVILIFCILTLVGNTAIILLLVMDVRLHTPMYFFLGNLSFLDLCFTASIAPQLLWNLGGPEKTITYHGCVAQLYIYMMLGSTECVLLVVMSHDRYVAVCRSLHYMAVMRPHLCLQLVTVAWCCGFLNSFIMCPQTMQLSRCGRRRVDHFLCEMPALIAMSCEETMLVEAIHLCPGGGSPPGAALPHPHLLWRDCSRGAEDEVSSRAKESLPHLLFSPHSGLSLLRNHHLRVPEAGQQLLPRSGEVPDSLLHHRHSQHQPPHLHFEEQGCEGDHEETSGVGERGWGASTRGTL
How it was run: as §1

OR2Y1 = tested on: T5, OR2Y1
T5 sequence (whole entry): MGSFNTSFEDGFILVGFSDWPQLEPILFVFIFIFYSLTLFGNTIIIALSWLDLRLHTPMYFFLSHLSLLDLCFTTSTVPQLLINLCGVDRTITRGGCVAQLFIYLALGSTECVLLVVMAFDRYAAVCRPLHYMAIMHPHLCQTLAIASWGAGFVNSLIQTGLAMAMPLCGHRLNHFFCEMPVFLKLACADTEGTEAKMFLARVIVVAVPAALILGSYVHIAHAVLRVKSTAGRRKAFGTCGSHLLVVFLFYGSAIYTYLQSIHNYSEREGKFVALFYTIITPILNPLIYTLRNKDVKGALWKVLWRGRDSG
How it was run: as §1

OR2Z1 (Homo sapiens) = target: T6, OR2Z1 (Homo sapiens) (UniProt Q8NG97)
T6 sequence (whole entry): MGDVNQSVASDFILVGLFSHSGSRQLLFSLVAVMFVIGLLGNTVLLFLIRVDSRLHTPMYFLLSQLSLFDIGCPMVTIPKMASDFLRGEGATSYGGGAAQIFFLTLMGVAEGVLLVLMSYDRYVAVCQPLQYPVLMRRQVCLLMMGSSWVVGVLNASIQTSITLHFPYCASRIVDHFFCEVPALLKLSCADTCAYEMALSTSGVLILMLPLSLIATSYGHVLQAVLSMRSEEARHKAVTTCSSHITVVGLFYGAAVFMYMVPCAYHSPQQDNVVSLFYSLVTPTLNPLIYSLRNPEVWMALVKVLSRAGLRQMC
How it was run: as §1

OR3A1 (Homo sapiens) = target: T7, OR3A1 (Homo sapiens) (UniProt P47881)
T7 sequence (whole entry): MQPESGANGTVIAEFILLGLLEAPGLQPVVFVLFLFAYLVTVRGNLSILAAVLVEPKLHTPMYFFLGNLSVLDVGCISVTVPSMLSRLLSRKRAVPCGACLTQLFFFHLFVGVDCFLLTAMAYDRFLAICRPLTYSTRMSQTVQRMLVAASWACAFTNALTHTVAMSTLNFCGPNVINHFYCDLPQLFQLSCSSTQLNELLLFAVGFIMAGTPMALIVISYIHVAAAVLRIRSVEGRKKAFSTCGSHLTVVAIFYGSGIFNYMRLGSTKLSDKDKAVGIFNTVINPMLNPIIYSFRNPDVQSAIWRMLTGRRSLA
How it was run: as §1

OR3A2 (Homo sapiens) = target: T8, OR3A2 (Homo sapiens) (UniProt P47893)
T8 sequence (whole entry): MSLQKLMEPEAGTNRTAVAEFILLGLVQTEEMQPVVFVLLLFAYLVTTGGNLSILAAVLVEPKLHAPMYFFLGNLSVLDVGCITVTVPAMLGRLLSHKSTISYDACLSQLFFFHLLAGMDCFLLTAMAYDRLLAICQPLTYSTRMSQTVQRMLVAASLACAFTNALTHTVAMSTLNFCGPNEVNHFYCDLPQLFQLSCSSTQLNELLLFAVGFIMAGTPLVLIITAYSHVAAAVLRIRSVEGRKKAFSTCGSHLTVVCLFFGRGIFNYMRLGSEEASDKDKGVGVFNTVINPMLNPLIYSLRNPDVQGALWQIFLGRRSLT
How it was run: as §1

OR3A3 = tested on: T9, OR3A3
T9 sequence (whole entry): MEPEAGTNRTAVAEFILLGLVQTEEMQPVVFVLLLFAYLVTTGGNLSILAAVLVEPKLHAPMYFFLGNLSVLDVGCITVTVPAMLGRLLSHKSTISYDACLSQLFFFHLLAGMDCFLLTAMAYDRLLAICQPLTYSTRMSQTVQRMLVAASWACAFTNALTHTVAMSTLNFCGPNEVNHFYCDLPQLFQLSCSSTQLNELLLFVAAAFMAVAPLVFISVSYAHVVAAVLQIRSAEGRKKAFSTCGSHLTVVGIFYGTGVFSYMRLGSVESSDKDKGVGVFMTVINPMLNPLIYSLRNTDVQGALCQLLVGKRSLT
How it was run: as §1

OR3A4 = tested on: T10, OR3A4
T10 sequence (whole entry): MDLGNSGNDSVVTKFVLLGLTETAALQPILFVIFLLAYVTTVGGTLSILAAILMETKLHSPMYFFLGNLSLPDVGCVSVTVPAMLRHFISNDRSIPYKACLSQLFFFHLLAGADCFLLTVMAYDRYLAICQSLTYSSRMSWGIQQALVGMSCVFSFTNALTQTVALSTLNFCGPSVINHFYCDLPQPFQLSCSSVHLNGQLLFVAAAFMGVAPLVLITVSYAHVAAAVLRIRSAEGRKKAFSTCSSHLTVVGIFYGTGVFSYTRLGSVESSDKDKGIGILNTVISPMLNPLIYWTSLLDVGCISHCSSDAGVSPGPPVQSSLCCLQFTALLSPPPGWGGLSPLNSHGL
How it was run: as §1

OR4A16 (Homo sapiens) = target: T11, OR4A16 (Homo sapiens) (UniProt Q8NH70)
T11 sequence (whole entry): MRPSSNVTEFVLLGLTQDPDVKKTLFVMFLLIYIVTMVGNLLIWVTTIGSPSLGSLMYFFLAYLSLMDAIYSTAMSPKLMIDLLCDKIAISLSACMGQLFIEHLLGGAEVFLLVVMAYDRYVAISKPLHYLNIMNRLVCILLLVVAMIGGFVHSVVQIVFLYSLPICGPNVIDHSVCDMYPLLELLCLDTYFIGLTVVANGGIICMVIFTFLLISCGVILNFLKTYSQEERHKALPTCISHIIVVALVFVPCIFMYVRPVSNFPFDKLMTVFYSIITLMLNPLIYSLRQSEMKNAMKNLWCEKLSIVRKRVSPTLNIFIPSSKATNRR
How it was run: as §1

OR4A4P (Homo sapiens) = target: T12, OR4A4P (Homo sapiens) (UniProt Q8NGN8)
T12 sequence (whole entry): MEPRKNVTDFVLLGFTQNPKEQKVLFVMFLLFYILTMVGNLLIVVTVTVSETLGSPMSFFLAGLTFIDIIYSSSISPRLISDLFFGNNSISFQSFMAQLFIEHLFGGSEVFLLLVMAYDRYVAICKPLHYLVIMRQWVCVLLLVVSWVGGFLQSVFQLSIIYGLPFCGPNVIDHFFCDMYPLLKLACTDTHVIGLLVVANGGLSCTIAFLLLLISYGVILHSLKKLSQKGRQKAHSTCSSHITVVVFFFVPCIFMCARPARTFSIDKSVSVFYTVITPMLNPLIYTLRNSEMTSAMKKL
How it was run: as §1

OR4A5 (Homo sapiens) = target: T13, OR4A5 (Homo sapiens) (UniProt Q8NH83)
T13 sequence (whole entry): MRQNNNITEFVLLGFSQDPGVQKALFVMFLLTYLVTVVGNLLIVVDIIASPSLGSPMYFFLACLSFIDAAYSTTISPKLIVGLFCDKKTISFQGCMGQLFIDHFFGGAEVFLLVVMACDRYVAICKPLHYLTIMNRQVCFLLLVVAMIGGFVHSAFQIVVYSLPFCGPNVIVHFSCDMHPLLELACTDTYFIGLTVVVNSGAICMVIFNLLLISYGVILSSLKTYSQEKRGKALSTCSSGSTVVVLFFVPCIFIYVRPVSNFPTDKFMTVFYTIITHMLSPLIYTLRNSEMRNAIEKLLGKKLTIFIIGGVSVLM
How it was run: as §1

OR4A5 = tested on: T14, OR4A5
T14 sequence (whole entry): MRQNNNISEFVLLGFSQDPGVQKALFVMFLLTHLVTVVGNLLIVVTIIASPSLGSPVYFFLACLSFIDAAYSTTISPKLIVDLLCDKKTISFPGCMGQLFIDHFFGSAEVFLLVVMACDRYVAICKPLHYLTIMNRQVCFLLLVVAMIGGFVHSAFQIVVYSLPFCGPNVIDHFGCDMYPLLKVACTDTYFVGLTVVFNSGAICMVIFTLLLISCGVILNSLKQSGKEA
How it was run: as §1

OR4B1 (Homo sapiens) = target: T15, OR4B1 (Homo sapiens) (UniProt Q8NGF8)
T15 sequence (whole entry): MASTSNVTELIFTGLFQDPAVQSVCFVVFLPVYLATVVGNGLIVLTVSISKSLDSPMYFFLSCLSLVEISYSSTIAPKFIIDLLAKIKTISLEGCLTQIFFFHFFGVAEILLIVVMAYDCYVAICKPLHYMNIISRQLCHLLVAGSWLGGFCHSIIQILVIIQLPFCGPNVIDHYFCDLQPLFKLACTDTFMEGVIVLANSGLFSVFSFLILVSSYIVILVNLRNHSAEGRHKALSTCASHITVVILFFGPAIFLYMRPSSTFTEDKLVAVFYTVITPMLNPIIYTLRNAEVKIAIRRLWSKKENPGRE
How it was run: as §1

OR4C11 (Homo sapiens) = target: T16, OR4C11 (Homo sapiens) (UniProt Q6IEV9)
T16 sequence (whole entry): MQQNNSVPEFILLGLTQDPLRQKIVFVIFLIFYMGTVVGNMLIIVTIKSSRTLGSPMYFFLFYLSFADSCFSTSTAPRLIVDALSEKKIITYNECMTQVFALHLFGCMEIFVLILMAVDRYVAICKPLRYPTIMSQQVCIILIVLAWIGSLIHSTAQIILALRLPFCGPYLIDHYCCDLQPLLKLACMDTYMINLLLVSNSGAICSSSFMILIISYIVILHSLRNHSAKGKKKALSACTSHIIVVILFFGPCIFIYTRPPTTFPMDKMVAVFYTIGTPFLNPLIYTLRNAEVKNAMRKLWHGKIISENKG
How it was run: as §1

| SMILES | odorant receptor agonist call (OR2W1) | odorant receptor agonist call (OR2W3 (Homo sapiens)) | odorant receptor agonist call (OR2W3) | odorant receptor agonist call (OR2W5P (Homo sapiens)) | odorant receptor agonist call (OR2Y1) | odorant receptor agonist call (OR2Z1 (Homo sapiens)) | odorant receptor agonist call (OR3A1 (Homo sapiens)) | odorant receptor agonist call (OR3A2 (Homo sapiens)) | odorant receptor agonist call (OR3A3) | odorant receptor agonist call (OR3A4) | odorant receptor agonist call (OR4A16 (Homo sapiens)) | odorant receptor agonist call (OR4A4P (Homo sapiens)) | odorant receptor agonist call (OR4A5 (Homo sapiens)) | odorant receptor agonist call (OR4A5) | odorant receptor agonist call (OR4B1 (Homo sapiens)) | odorant receptor agonist call (OR4C11 (Homo sapiens)) |
| --- | --- | --- | --- | --- | --- | --- | --- | --- | --- | --- | --- | --- | --- | --- | --- | --- |
| CCCC(=O)O | inactive | inactive | inactive | inactive | inactive | inactive | inactive | inactive | inactive | active | inactive | inactive | inactive | inactive | inactive | inactive |
| CC1=NC(C)SC1C (stereo not drawn) | inactive |  | inactive | inactive | inactive | active | inactive | inactive |  |  | inactive | inactive |  | inactive | inactive | inactive |
